# The supplement of paper PMC8728848
# Some of the results follow.
# B1: Aap arpt (Staphylococcus epidermidis) (protein)
# chain: NNEAPQMSSTLQAEEGSNAEAPQSEPTKAEEGGNAEAAQSEPTKAEEGGNAEAPQSEPTKAEEGGNAEAAQSEPTKTEEGSNVKAAQSEPTKAEEGSNAEAPQSEPTKTEEGSNAKAAQSEPTKAEEGGNAEAAQSEPTKTEEGSNAEAPQSEPTKAEEGGYAEAPQSEPTKTEEGGNAEAPNVPTIKA
# Experiments:
# Assay in all cases: glycan array binding signal (z-score within array); higher = stronger binding
# Details in all cases: glycan notation: IUPAC condensed, linker removed
# [1] = molecular target: Fuc(a1-2)[GalNAc(a1-3)]Gal(b1-3)GlcNAc(b1-6)GalNAc
# How it was run: (§1)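 Glycan array binding is given as a within-array Z-score, which can be read as non-binding when negative. The arrays, 3228 of them, came from the Consortium for Functional Glycomics database and were retained only where the protein sequence was available. Z-scores were averaged across arrays of the same protein sequence at different concentrations or buffers and across linkers.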
# [2] = molecular target: Fuc(a1-2)[GalNAc(a1-3)]Gal(b1-4)Glc
# How it was run: as §1
# [3] = molecular target: Fuc(a1-2)[GalNAc(a1-3)]Gal(b1-4)GlcNAc
# How it was run: as §1
# [4] = molecular target: Fuc(a1-2)[GalNAc(a1-3)]Gal(b1-4)GlcNAc(b1-2)Man
# How it was run: as §1
# [5] = molecular target: Fuc(a1-2)[GalNAc(a1-3)]Gal(b1-4)GlcNAc(b1-2)Man(a1-3)[Fuc(a1-2)[GalNAc(a1-3)]Gal(b1-4)GlcNAc(b1-2)Man(a1-6)]Man(b1-4)GlcNAc(b1-4)GlcNAc
# How it was run: as §1
# [6] = molecular target: Fuc(a1-2)[GalNAc(a1-3)]Gal(b1-4)GlcNAc(b1-2)Man(a1-3)[Fuc(a1-2)[GalNAc(a1-3)]Gal(b1-4)GlcNAc(b1-2)Man(a1-6)]Man(b1-4)GlcNAc(b1-4)[Fuc(a1-6)]GlcNAc
# How it was run: as §1
# [7] = molecular target: Fuc(a1-2)[GalNAc(a1-3)]Gal(b1-4)GlcNAc(b1-3)Gal(b1-4)GlcNAc
# How it was run: as §1
# [8] = molecular target: Fuc(a1-2)[GalNAc(a1-3)]Gal(b1-4)GlcNAc(b1-3)Gal(b1-4)GlcNAc(b1-3)Gal(b1-4)GlcNAc
# How it was run: as §1
# [9] = molecular target: Fuc(a1-2)[GalNAc(a1-3)]Gal(b1-4)GlcNAc(b1-3)GalNAc
# How it was run: as §1
# [10] = molecular target: Fuc(a1-2)[GalNAc(a1-3)]Gal(b1-4)GlcNAc(b1-3)[Fuc(a1-2)[GalNAc(a1-3)]Gal(b1-4)GlcNAc(b1-6)]GalNAc
# How it was run: as §1
# [11] = molecular target: Fuc(a1-2)[GalNAc(a1-3)]Gal(b1-4)GlcNAc(b1-6)GalNAc
# How it was run: as §1
# [12] = molecular target: Fuc(a1-2)[GalNAc(a1-3)]Gal(b1-4)[Fuc(a1-3)]GlcNAc
# How it was run: as §1
# [13] = molecular target: Fuc(a1-2)[GalNAc(a1-3)]Gal(b1-4)[Fuc(a1-3)]GlcNAc(b1-3)GalNAc
# How it was run: as §1
# [14] = molecular target: Fuc(a1-2)[GalNAc(a1-4)]Gal(b1-4)GlcNAc
# How it was run: as §1
# [15] = molecular target: Fuc(a1-2)[GalNAc(b1-3)]Gal
# How it was run: as §1
# Fuc(a1-3)GlcNAc = molecular target: Fuc(a1-3)GlcNAc
# How it was run: as §1
# [16] = molecular target: Fuc(a1-3)[Gal(b1-4)]Glc6S
# How it was run: as §1
# [17] = molecular target: Fuc(a1-3)[Gal(b1-4)]GlcNAc
# How it was run: as §1
# [18] = molecular target: Fuc(a1-3)[Gal(b1-4)]GlcNAc(b1-2)Man
# How it was run: as §1
# [19] = molecular target: Fuc(a1-3)[Gal(b1-4)]GlcNAc(b1-2)Man(a1-3)[Fuc(a1-3)[Gal(b1-4)]GlcNAc(b1-2)Man(a1-6)]Man(b1-4)GlcNAc(b1-4)GlcNAc
# How it was run: as §1
# [20] = molecular target: Fuc(a1-3)[Gal(b1-4)]GlcNAc(b1-2)Man(a1-3)[Fuc(a1-3)[Gal(b1-4)]GlcNAc(b1-2)Man(a1-6)]Man(b1-4)GlcNAc(b1-4)[Fuc(a1-6)]GlcNAc
# How it was run: as §1
# [21] = molecular target: Fuc(a1-3)[Gal(b1-4)]GlcNAc(b1-3)Gal(b1-3)[Fuc(a1-4)]GlcNAc
# How it was run: as §1
# [22] = molecular target: Fuc(a1-3)[Gal(b1-4)]GlcNAc(b1-3)Gal(b1-4)[Fuc(a1-3)]GlcNAc
# How it was run: as §1
# [23] = molecular target: Fuc(a1-3)[Gal(b1-4)]GlcNAc(b1-3)Gal(b1-4)[Fuc(a1-3)]GlcNAc(b1-3)Gal(b1-4)[Fuc(a1-3)]GlcNAc
# How it was run: as §1
# [24] = molecular target: Fuc(a1-3)[Gal(b1-4)]GlcNAc(b1-3)GalNAc
# How it was run: as §1
# [25] = molecular target: Fuc(a1-3)[Gal(b1-4)]GlcNAc(b1-6)GalNAc
# How it was run: as §1
# [26] = molecular target: Fuc(a1-3)[Gal(b1-4)]GlcNAc(b1-6)[Gal(b1-3)GlcNAc(b1-3)]Gal(b1-4)Glc
# How it was run: as §1
# [27] = molecular target: Fuc(a1-3)[Gal(b1-4)]GlcNAc6S
# How it was run: as §1
# [28] = molecular target: Fuc(a1-3)[Gal3S(b1-4)]Glc
# How it was run: as §1
# [29] = molecular target: Fuc(a1-3)[Gal3S(b1-4)]GlcNAc
# How it was run: as §1
# [30] = molecular target: Fuc(a1-3)[Gal3S(b1-4)]GlcNAc6S
# How it was run: as §1
# [31] = molecular target: Fuc(a1-3)[GalNAc(b1-4)]GlcNAc
# How it was run: as §1
# [32] = molecular target: Fuc(a1-3)[GalNAc(b1-4)]GlcNAc6S
# How it was run: as §1
# Fuc(a1-4)GlcNAc = molecular target: Fuc(a1-4)GlcNAc
# How it was run: as §1
# Fuc(b1-3)GlcNAc = molecular target: Fuc(b1-3)GlcNAc
# How it was run: as §1
# Gal(a1-2)Gal = molecular target: Gal(a1-2)Gal
# How it was run: as §1
# Gal(a1-3)Gal = molecular target: Gal(a1-3)Gal
# How it was run: as §1
# Gal(a1-3)Gal(b1-3)GlcNAc = molecular target: Gal(a1-3)Gal(b1-3)GlcNAc
# How it was run: as §1
# [33] = molecular target: Gal(a1-3)Gal(b1-3)GlcNAc(b1-2)Man
# How it was run: as §1
# [34] = molecular target: Gal(a1-3)Gal(b1-3)GlcNAc(b1-2)Man(a1-3)[Gal(a1-3)Gal(b1-3)GlcNAc(b1-2)Man(a1-6)]Man(b1-4)GlcNAc(b1-4)GlcNAc
# How it was run: as §1
# [35] = molecular target: Gal(a1-3)Gal(b1-3)GlcNAc(b1-3)GalNAc
# How it was run: as §1
# [36] = molecular target: Gal(a1-3)Gal(b1-3)GlcNAc(b1-6)GalNAc
# How it was run: as §1
# [37] = molecular target: Gal(a1-3)Gal(b1-3)[Fuc(a1-4)]GlcNAc(b1-2)Man(a1-3)[Gal(a1-3)Gal(b1-3)[Fuc(a1-4)]GlcNAc(b1-2)Man(a1-6)]Man(b1-4)GlcNAc(b1-4)GlcNAc
# How it was run: as §1
# Gal(a1-3)Gal(b1-4)Glc = molecular target: Gal(a1-3)Gal(b1-4)Glc
# How it was run: as §1
# Gal(a1-3)Gal(b1-4)GlcNAc = molecular target: Gal(a1-3)Gal(b1-4)GlcNAc
# How it was run: as §1
binder,measurement,setting,value
B1,glycan array binding signal (z-score),[1],-0.564
same,glycan array binding signal (z-score),[2],0.147
same,glycan array binding signal (z-score),[3],-2.25
same,glycan array binding signal (z-score),[4],1.48
same,glycan array binding signal (z-score),[5],0.528
same,glycan array binding signal (z-score),[6],-0.621
same,glycan array binding signal (z-score),[7],-0.914
same,glycan array binding signal (z-score),[8],-0.239
same,glycan array binding signal (z-score),[9],-0.617
same,glycan array binding signal (z-score),[10],-0.684
same,glycan array binding signal (z-score),[11],0.358
same,glycan array binding signal (z-score),[12],0.454
same,glycan array binding signal (z-score),[13],1.69
same,glycan array binding signal (z-score),[14],-0.286
same,glycan array binding signal (z-score),[15],-0.168
same,glycan array binding signal (z-score),Fuc(a1-3)GlcNAc,-0.294
same,glycan array binding signal (z-score),[16],-0.246
same,glycan array binding signal (z-score),[17],-0.92
same,glycan array binding signal (z-score),[18],-0.688
same,glycan array binding signal (z-score),[19],-1.43
same,glycan array binding signal (z-score),[20],0.767
same,glycan array binding signal (z-score),[21],0.763
same,glycan array binding signal (z-score),[22],1.48
same,glycan array binding signal (z-score),[23],0.278
same,glycan array binding signal (z-score),[24],-0.131
same,glycan array binding signal (z-score),[25],0.096
same,glycan array binding signal (z-score),[26],-0.249
same,glycan array binding signal (z-score),[27],-0.319
same,glycan array binding signal (z-score),[28],-0.238
same,glycan array binding signal (z-score),[29],0.27
same,glycan array binding signal (z-score),[30],-0.38
same,glycan array binding signal (z-score),[31],-0.157
same,glycan array binding signal (z-score),[32],0.246
same,glycan array binding signal (z-score),Fuc(a1-4)GlcNAc,0.688
same,glycan array binding signal (z-score),Fuc(b1-3)GlcNAc,-0.03
same,glycan array binding signal (z-score),Gal(a1-2)Gal,0.231
same,glycan array binding signal (z-score),Gal(a1-3)Gal,0.867
same,glycan array binding signal (z-score),Gal(a1-3)Gal(b1-3)GlcNAc,-0.659
same,glycan array binding signal (z-score),[33],-0.261
same,glycan array binding signal (z-score),[34],1.03
same,glycan array binding signal (z-score),[35],0.863
same,glycan array binding signal (z-score),[36],-0.773
same,glycan array binding signal (z-score),[37],0.296
same,glycan array binding signal (z-score),Gal(a1-3)Gal(b1-4)Glc,0.127
same,glycan array binding signal (z-score),Gal(a1-3)Gal(b1-4)GlcNAc,-0.688

# Quoted at random: three records from the list.
binder,measurement,setting,value
B1,glycan array binding signal (z-score),[24],-0.131
same,glycan array binding signal (z-score),Gal(a1-3)Gal(b1-4)GlcNAc,-0.688
same,glycan array binding signal (z-score),[5],0.528
